Laboratory results published in the supplement of paper PMC12889115.
This is one part of the list. Values are raw readings; no control value is given beside them.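 First-pass screen: polymyxin B was added at a level that permeabilizes the Salmonella outer membrane while sparing the inner membrane. DMSO wells, with and without polymyxin B, defined maximum growth. Because plates differed from one another, each plate's data were ranked separately and the compounds with the lowest OD600 were carried forward as hits.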

System: Salmonella enterica serovar Typhimurium SL1344
Experiment: bacterial growth OD600 after 18 h with compound and polymyxin B; higher = more bacterial growth (less inhibition)
Details: 50 µM, Mueller-Hinton broth

Structure (SMILES)	bacterial growth OD600 (polymyxin B 0.75 µg/mL)	bacterial growth OD600 (polymyxin B 1 µg/mL)
COC(=O)c1cc(CNC(=O)c2ccccn2)cc(NS(=O)(=O)c2cccc(C(F)(F)F)c2)c1	0.62	
O=C(C1CC1)N1CCCC(CCc2c(F)cccc2F)C1 (configuration not stated)	0.33	
CCOC(=O)C1(CC2CCCCO2)CCN(S(=O)(=O)c2ccc(F)cc2Cl)CC1 (configuration not stated)	0.609	
CC(NC1CCN(c2ccc(C(=O)N(C)C)cc2)CC1)c1cccs1 (configuration not stated)	0.829	
Cc1ccccc1N1CCN(c2ncccc2CNC(=O)c2ccoc2C)CC1		0.102
O=C(Cn1cccn1)N(CC1CCN(Cc2ccccc2F)CC1)CC1CCCO1 (configuration not stated)	0.795	
COc1ccccc1CCN1CCC(CN(C)C(=O)Cc2ccccc2C)CC1		0.983
O=C(CCC1CCCN(C(=O)c2ccc(Cl)s2)C1)NC1CC1 (configuration not stated)		0.999
Cc1nc(CN2CCN(C(=O)Cn3nnnc3CN(C)C(C)C)CC2)cs1	0.785	
Cn1ccnc1SCCNC(=O)c1ccc2nc(C3CC3)oc2c1		1.12
Cc1ccc(-c2cc3c(c(OCC4CCCN(C)C4)c2)OCCN(C(=O)Cc2c(C)noc2C)C3)s1 (configuration not stated)	0.94	
CC1(C)CC(CC(=O)NC2CCCN(CC3CCCCC3)C2)CC(C)(C)N1 (configuration not stated)		0.985
COc1ccc(CCN(C)C(=O)CC2(c3ccccc3OC)CC(=O)N(C)C2=O)cc1OC (configuration not stated)	0.86	
COC(=O)C1CCN(CC2(O)CCCN(CC3CCC3)C2=O)CC1 (configuration not stated)		0.926
COc1ccc(C(=O)N2CCCC(Nc3ccccc3)C2)cc1C (configuration not stated)		0.754
CCOC(=O)C1CCN(C(=O)c2coc(COc3ccccc3)n2)CC1		0.91

A second format for part of the listing above.
Structure (SMILES),bacterial growth OD600 (polymyxin B 0.75 µg/mL),bacterial growth OD600 (polymyxin B 1 µg/mL)
O=C(CCC1CCCN(C(=O)c2ccc(Cl)s2)C1)NC1CC1 (configuration not stated),,0.999
Cc1nc(CN2CCN(C(=O)Cn3nnnc3CN(C)C(C)C)CC2)cs1,0.785,

Continued:

Structure (SMILES)	bacterial growth OD600 (polymyxin B 0.75 µg/mL)	bacterial growth OD600 (polymyxin B 1 µg/mL)
O=C1N(CCCc2ccccc2)CCCC12CCN(c1ccccn1)C2 (configuration not stated)		0.03
O=C(NCc1cn2ccsc2n1)c1ccc2oc(Cc3ccccc3)nc2c1	0.94	
CC(C)CN1CCC(C2CCN(C(=O)c3ccncc3)C2)CC1 (configuration not stated)		1
COc1cccc(CCC2CCCN(C(=O)C3CCOCC3)C2)c1 (configuration not stated)	0.68	
COc1cccc(-c2nn(-c3ccccc3)cc2CNCC2CCCO2)c1 (configuration not stated)	0.76	
CCC(=O)N1CCCC(CCc2cccc(OC)c2)C1 (configuration not stated)	0.89	
COCCc1nc2ccc(C(=O)NCC3(c4ccc(OC)cc4)CCCC3)cc2o1		0.674
C=CCNC(=O)c1coc(COc2ccc3sc(C)nc3c2)n1		0.921
CCC1C(=O)N(C)CCN1c1ccc(-c2nc(-c3ccccc3F)no2)cn1 (configuration not stated)		0.748
COCC(=O)Nc1cc(C(=O)N(C)Cc2nonc2C)cc2ncn(CCc3ccccc3)c12	0.809	
COc1ccc(NC(=O)CCC2CCCN(C(=O)c3ccc(C(C)=O)s3)C2)cc1Cl (configuration not stated)		0.857
COC(=O)CCNc1ccc(-c2nc(Cc3ccc(F)cc3)no2)cn1	0.006	
O=C(C1=CCCC1)N1CCCC(CNC(=O)C2(c3ccc(Cl)cc3)CC2)C1 (configuration not stated)		0.853
O=C(NCc1ccc(Cl)s1)C1CCC(=O)N(CCCN2CCOCC2)C1 (configuration not stated)		0.797
CCC(=O)N[C@@H]1c2ccccc2C2(CCN(Cc3c(F)ccc(F)c3F)CC2)[C@H]1OCCOC	0.722	
CCOC(=O)C1(C/C=C/c2ccccc2)CCCN(C(=O)c2n[nH]c(=O)c3ccccc23)C1 (configuration not stated)		0.665
